The values that follow come from publication PMC12040169 (PLOS Biology, 2025).

SMILES strings stand for the structures. This is one part of the list.

The assay concerns T1, CTL2-GFP (C. trachomatis L2/434/Bu, GFP-expressing).
T1 construct: L2/434/Bu, GFP-expressing
Also noted: species or system HeLa; Intracellular C. trachomatis growth in HeLa cells, bulk GFP fluorescence relative to DMSO. To be noted: bulk GFP, single well; 28.5 h, 10 µM; inhibitor.
Take `COc1cc(-c2nc(N)cc3cccnc23)cc(OC)c1OC` [CBK061892]: the “% of control remaining” value turned out to be 121.214%.
For the compound `COc1ccccc1CC(=O)N1[C@H](Cc2ccccc2)C[C@@H]2NCCCCC[C@H]21` [CBK285978], the “% of control remaining” value is 108.09%.
For `Cc1c(NC(=O)c2ccc([N+](=O)[O-])o2)cccc1-c1nc2ccccc2s1` [CBK263051] the value was 92.6613%; for `COc1nc(NCCN2CCOCC2)nc(Nc2ccccc2)n1` [CBK027298], 100.055%.
The value for `CSc1ccc(-c2cn3ccnc3c(NCCc3ccncc3)n2)cc1` [CBK066479] was 191.138%; that for `O=C(Nc1cccnc1)c1cnc2cc(Cl)ccc2c1O` [CBK107353] was 133.801%.
As to `O=C1CC(c2nc(-c3ccncc3)no2)CN1c1ccc2c(c1)OCO2` (centres unmarked) [CBK288583], the “% of control remaining” value is reported as 95.4231%.
`O=C(NCCO)c1ccc(CSc2nc3sc4c(c3c(=O)[nH]2)CCCC4)cc1` [CBK263522]: the “% of control remaining” value was found to be 100%.
For `O=c1cc(-c2ccccc2)nc(SCc2nc(-c3cccs3)no2)[nH]1` [CBK268416] the value was 102.538%.
Consider `CCCC/C=C/c1cn2ccnc2c(NCCc2cccnc2)n1` [CBK066235], for which the “% of control remaining” value was determined as 146.556%.
For `CC(=O)[C@H]1C[C@@H](CC(=O)NCc2csc(-c3ccccc3)n2)C1(C)C` [CBK092335] the value was 85.4372%; for `CNC(=O)C1CCN(S(=O)(=O)c2ccc(C(C)(C)C)cc2)CC1` [CBK051544], 99.6837%.
The value for `CC(=O)Nc1ccc(C(=O)CSc2nnc(C)o2)cc1` [CBK267851] was 96.0293%; that for `CC(=O)N1CC2(CCCC2)c2c(F)cccc21` [CBK306339] was 144.541%.
On to `Cc1cc(C)nc(Nc2n[nH]c(COc3ccccc3)n2)n1` [CBK268016], for which the “% of control remaining” value was found to be 134.017%.
For `N#Cc1ccccc1CSc1nc(N2CCOCC2)nc(N2CCOCC2)n1` [CBK268998] the value was 148.739%.
With `Cc1ccc(Nc2nc(N(C)C)nc3[nH]ncc23)cc1` [CBK288098], the “% of control remaining” value was 114.814%.
The value for `OC1(c2cccnc2F)CCN(Cc2cccc(F)c2F)CC1` [CBK284375] was 105.516%.
For `COc1ccc(S(=O)(=O)Nc2nccnc2-c2ccc(CN3C(=O)CCC3=O)cc2)cc1` [CBK050699] the value was 104.723%; for `CCc1cccc(NC(=O)CCc2ccccc2)c1` [CBK263637], 79.0194%; for `Nc1csc(C2CCOCC2)n1` [CBK019258], 131.669%.
Regarding `CC(Sc1nc(-c2cccnc2)ccc1C#N)C(=O)O` (centres unmarked) [CBK267452], the “% of control remaining” value is on record as 144.698%.
For `O=C(Cc1cc(Cl)ccc1C(F)(F)F)Nc1ccc2ncccc2c1` [CBK159802] the value was 123.073%.
